Data as given in patent US8853440B2, “Method for producing amide derivative” (Mitsui Chemicals Agro, Inc., priority 2008, dated 2014).
Some results were stated once for a whole list of compounds, not compound by compound.

Assays:
[1] = system: Spodoptera litura; experiment: Insecticidal test against Spodoptera litura; type: in vivo; conditions: 1 ppm; second-instar larvae; cabbage leaves immersed 30 seconds; 25° C.; after 6 days
[2] = system: Plutella xylostella; experiment: Insecticidal test against Plutella xylostella; type: in vivo; conditions: 1 ppm; third-instar larvae; cabbage leaves immersed 30 seconds; 25° C.; after 6 days

Structure (SMILES): CN(C(=O)c1ccccc1)c1cccc(C(=O)Nc2c(Br)cc(C(F)(C(F)(F)F)C(F)(F)C(F)(F)F)cc2C(F)(F)F)c1F (stereo not drawn) [Example 13]
- dead insect ratio [1]: ≥ 70%
- dead insect ratio [2]: ≥ 70%

Structure (SMILES): CN(C(=O)c1ccccc1)c1cccc(C(=O)Nc2c(I)cc(C(F)(C(F)(F)F)C(F)(F)F)cc2C(F)(F)F)c1F [Example 14]
- dead insect ratio [1]: ≥ 70%
- dead insect ratio [2]: ≥ 70%

Structure (SMILES): CN(C(=O)c1ccc(F)cc1)c1cccc(C(=O)Nc2c(I)cc(C(F)(C(F)(F)F)C(F)(F)F)cc2C(F)(F)F)c1F [Example 15]
- dead insect ratio [1]: ≥ 70%
- dead insect ratio [2]: ≥ 70%

Structure (SMILES): CN(C(=O)c1ccc(F)cc1)c1cccc(C(=O)Nc2c(Br)cc(C(F)(C(F)(F)F)C(F)(F)F)cc2C(F)(F)F)c1F [Example 16]
- dead insect ratio [1]: ≥ 70%
- dead insect ratio [2]: ≥ 70%

Structure (SMILES): CN(C(=O)c1cccc(F)c1)c1cccc(C(=O)Nc2c(I)cc(C(F)(C(F)(F)F)C(F)(F)F)cc2C(F)(F)F)c1F [Example 17]
- dead insect ratio [1]: ≥ 70%
- dead insect ratio [2]: ≥ 70%

Structure (SMILES): O=C(Nc1c(I)cc(C(F)(C(F)(F)F)C(F)(F)F)cc1C(F)(F)F)c1cccc(NC(=O)c2cccnc2Cl)c1 [Example 19]
- dead insect ratio [1]: ≥ 70%
- dead insect ratio [2]: ≥ 70%
